Laboratory results published in article PMC3114773.
Results are given in words; binding and its absence hold for the method and conditions named. Binding seen in cells or lysates may run through a third protein. Binding calls can cover weak binding; strength is not graded here.

Amino acid sequences for entries named in this document (tags omitted). A change or cut given only in a name is not applied to a line headed by its entry.
UniProt P56726: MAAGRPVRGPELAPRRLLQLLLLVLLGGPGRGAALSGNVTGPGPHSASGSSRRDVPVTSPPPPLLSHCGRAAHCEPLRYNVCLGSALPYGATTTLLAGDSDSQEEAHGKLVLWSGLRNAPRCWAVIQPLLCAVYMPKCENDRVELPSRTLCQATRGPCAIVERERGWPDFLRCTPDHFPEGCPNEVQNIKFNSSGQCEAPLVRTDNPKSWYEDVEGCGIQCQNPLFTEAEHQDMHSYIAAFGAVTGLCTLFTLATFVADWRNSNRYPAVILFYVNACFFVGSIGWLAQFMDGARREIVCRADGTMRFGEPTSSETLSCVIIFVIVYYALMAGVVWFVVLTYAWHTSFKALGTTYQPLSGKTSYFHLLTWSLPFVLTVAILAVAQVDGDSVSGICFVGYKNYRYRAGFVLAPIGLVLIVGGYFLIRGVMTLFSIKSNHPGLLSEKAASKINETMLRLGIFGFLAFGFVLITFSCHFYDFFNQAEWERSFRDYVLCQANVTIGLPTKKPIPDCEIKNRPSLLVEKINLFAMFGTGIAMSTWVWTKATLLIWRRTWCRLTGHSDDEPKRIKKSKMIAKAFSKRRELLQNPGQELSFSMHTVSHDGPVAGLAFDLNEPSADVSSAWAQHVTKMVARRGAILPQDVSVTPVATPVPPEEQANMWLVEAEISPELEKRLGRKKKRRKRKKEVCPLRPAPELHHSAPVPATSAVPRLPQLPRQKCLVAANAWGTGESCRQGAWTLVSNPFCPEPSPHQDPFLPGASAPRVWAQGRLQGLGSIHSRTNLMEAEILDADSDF
UniProt Q99MK8: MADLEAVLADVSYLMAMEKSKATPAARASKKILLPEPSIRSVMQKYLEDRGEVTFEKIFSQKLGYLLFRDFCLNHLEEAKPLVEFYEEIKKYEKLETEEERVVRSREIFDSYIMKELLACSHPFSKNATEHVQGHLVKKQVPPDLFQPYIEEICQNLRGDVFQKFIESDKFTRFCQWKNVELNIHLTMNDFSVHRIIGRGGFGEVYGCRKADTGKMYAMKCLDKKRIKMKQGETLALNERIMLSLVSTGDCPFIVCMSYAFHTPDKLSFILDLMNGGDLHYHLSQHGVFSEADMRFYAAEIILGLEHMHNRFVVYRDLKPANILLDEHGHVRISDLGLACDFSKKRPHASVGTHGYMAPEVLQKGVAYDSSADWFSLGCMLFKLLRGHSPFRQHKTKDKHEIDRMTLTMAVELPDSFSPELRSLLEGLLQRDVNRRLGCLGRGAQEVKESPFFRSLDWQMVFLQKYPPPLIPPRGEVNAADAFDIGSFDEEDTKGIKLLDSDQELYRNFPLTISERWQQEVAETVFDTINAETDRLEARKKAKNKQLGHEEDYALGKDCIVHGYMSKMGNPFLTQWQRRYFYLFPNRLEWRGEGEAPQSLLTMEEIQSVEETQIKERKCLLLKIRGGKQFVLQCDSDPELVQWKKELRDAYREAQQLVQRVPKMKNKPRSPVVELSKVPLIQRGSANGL
UniProt Q8BK63: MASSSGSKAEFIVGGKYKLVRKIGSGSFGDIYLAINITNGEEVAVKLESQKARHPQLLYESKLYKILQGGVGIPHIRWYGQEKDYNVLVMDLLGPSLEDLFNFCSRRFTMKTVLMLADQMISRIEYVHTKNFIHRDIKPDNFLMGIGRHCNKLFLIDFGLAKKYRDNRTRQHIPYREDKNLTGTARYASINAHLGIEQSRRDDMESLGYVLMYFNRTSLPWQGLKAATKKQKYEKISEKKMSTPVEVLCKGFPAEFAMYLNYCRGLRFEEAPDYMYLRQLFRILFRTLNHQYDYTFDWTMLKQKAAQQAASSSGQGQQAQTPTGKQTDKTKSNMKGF

Tests used:
Test in all cases: co-IP; NIH 3T3 cells transfected with Myc- or HA-tagged Smo constructs, with or without Shh-conditioned medium; lysis in RIPA buffer (50 mM Tris-Cl pH 7.9, 150 mM NaCl, 5 mM EDTA, 1% NP-40); Smo pulled down, endogenous CK1α and GRK2 blotted
[1] = biological target: SmoM1 (full-length Smo with the M1 mutation) (not stated (mammalian)) (UniProt P56726)
[2] = biological target: SmoΔ588 with the M1 mutation (not stated (mammalian)) (UniProt P56726)
[3] = biological target: SmoΔ588 with the A1 mutation (not stated (mammalian)) (UniProt P56726)

endogenous GRK2 (from UniProt Q99MK8 1-689) (enzyme)
binding [1]: binds

endogenous CK1α (from UniProt Q8BK63 1-337) (enzyme)
binding [2]: binds | binding [1]: binds | binding [3]: binds
